PubChem BioAssay AID1224826 – NIAID | 2016
Aim: 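Regulators of Tlr4 signalling leading to Tnf-alpha expression in macrophages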 (primary screen). Cell system: RAW264.7 G9 macrophages from mouse bearing reporters for p65 (GFP) and the Tnf promoter (mCherry). Knock-down reagent: siRNA pool against mouse genes, 100 nM. Time to read-out: 16 h of LPS stimulation, after 2 days of siRNA transfection. Challenge: bacterial lipopolysaccharide (Salmonella minnesota R595), 10 ng/ml. Measured: 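Nuclear mCherry signal of the Tnf promoter reporter measured by imaging after background removal, scaled to each plate median and turned into robust z-scores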. Direction: Tnf reporter robust z-score: higher = stronger Tnf promoter reporter signal after LPS; Tnf reporter intensity: higher = stronger Tnf promoter reporter signal. Call rule: 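Called active when robust z-score is at most -1.3, matching the median of the Tlr4 knock-down control, or over 3; control wells and wells with under 50 cells never active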. Meaning of the calls: active = Tnf reporter clearly lowered or raised; inactive = no clear change in Tnf reporter.
Here is an unselected part of about 17,000 reagents. About 1,110 of them (6.6%) were called active. 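Active means lowered or raised reporter signal; replicate intensities are raw and not normalised per plate.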 Entries without a mark were called inactive. A reagent listed more than once was tested more than once; the source does not tell the runs apart. No sequences are given here.

gene knocked down	PubChem SID	Tnf reporter robust z-score	fewer than 50 cells in well	Tnf reporter intensity, replicate 1	Tnf reporter intensity, replicate 2
Slc12a1 (GeneID 20495)	SID315469271	-0.3	enough cells in well	211	119
Abca8b (GeneID 27404)	SID315470613	-0.31	enough cells in well	167	185
Cldn4 (GeneID 12740)	SID315465995	-0.43	enough cells in well	211	177
Tmem14a (GeneID 75712)	SID315475184	0.31	enough cells in well	207	151
Or2d2 (GeneID 258776)	SID315480424	-0.26	enough cells in well	123	106
Cmpk1 (GeneID 66588)	SID315472521		fewer than 50 cells per well; well left out of calls	131	139
Cmpk1 (GeneID 66588)	SID315472521	0.91	enough cells in well	427	77.6
Tmem209 (GeneID 72649)	SID315474596	-0.03	enough cells in well	263	64.9

An excerpt of the results above, for reference:
gene knocked down	PubChem SID	Tnf reporter robust z-score	fewer than 50 cells in well	Tnf reporter intensity, replicate 1	Tnf reporter intensity, replicate 2
Slc12a1 (GeneID 20495)	SID315469271	-0.3	enough cells in well	211	119
Abca8b (GeneID 27404)	SID315470613	-0.31	enough cells in well	167	185
Cldn4 (GeneID 12740)	SID315465995	-0.43	enough cells in well	211	177

Continued:
gene knocked down	PubChem SID	Tnf reporter robust z-score	fewer than 50 cells in well	Tnf reporter intensity, replicate 1	Tnf reporter intensity, replicate 2
Adamts4 (GeneID 240913)	SID315479535	0.36	enough cells in well	168	214
Apoc3 (GeneID 11814)	SID315465470	-0.41	enough cells in well	117	178
Pnck (GeneID 93843)	SID315475982		fewer than 50 cells per well; well left out of calls	212	181
Slc31a2 (GeneID 20530)	SID315469304		fewer than 50 cells per well; well left out of calls	0	138
Nr1d1 (GeneID 217166)	SID315478084	-1.25	enough cells in well	157	91.9
Polr2j (GeneID 20022)	SID315469032		fewer than 50 cells per well; well left out of calls	91.4	60
Nipsnap3b (GeneID 66536)	SID315472499	0.96	enough cells in well	216	225
Sae1 (GeneID 56459)	SID315471553		fewer than 50 cells per well; well left out of calls	60.5	78.7
Arhgap1 (GeneID 228359)	SID315478626		fewer than 50 cells per well; well left out of calls	61.2	53.2
Cers2 (GeneID 76893)	SID315475402	0.23	enough cells in well	219	133
Tk2 (GeneID 57813)	SID315471831		fewer than 50 cells per well; well left out of calls	179	119
Gjb3 (GeneID 14620)	SID315466913	-0.51	enough cells in well	236	173
Scn9a (GeneID 20274)	SID315469121	0.02	enough cells in well	139	118
Klkb1 (GeneID 16621)	SID315467654	-1.08	enough cells in well	156	92.8
Mcts1 (GeneID 68995)	SID315473693	0.57	enough cells in well	279	273
Nol9 (GeneID 74035)	SID315474823	-0.21	enough cells in well	150	67.3
